Test results as given in ChEMBL document CHEMBL5360532, “Current scenario of quinolone hybrids with potential antibacterial activity against ESKAPE pathogens” (Eur J Med Chem, 2023).

Tests used:
MCF7 = assay: Anticancer activity against human MCF7 cell assessed as cell growth inhibition measured after 24 to 72 hrs by MTT assay; format: functional, cell-based
HeLa = assay: Anticancer activity against human HeLa cells assessed as cell growth inhibition; format: functional, cell-based

COc1cccc2c1C(=O)c1c(O)c3c(c(O)c1C2=O)C[C@@](O)(C(=O)CO)C[C@@H]3O[C@H]1C[C@H](N)[C@H](O)[C@H](C)O1 [DOXORUBICIN]
IC50 (MCF7): 0.259 µM
IC50 (HeLa): 19.3 µM
